Test results published in PubChem BioAssay AID2685 (National Center for Advancing Translational Sciences (NCATS), 2010).
Some of the results follow. These are further read-outs of the screen, such as a control signal, another cell line or another target. No call is given for them. The list favours compounds with an active or inconclusive main result. The note in brackets gives the kind of curve behind each potency; many fits are weak.

Assay: qHTS Assay for Lipid Storage Modulators in Drosophila S3 Cells;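 for cell number change: cells counted by Cell Tracker Red CMTPX staining in the red channel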
Conditions: BODIPY lipid droplet fluorescence, 18-24 h; for cell number change: measured here: cell count max response, cells fed with added oleic acid
In short: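 Drosophila S3 cells got compounds at several concentrations plus oleic acid (400 uM solution). Laser-scanning cytometry with 488 nm excitation read lipid droplets at 500-530 nm and cells at 575-640 nm. Percent activity was relative to 20 uM Triacsin C.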

[1] = measured here: lipid fluorescence (Fed channel) AC50, cells fed with added oleic acid
[2] = measured here: cell number channel AC50, cells fed with added oleic acid

SMILES	cell number change	AC50 [1]	AC50 [2]
COc1ccc(CCC(=O)Nc2ccc3c(c2)OCO3)cc1OC	-3.91%	6.51 µM [rising, single point]	–
COCCNC(=O)c1cccc(OC2CCN(Cc3ccccc3OC(F)F)CC2)c1	4.23%	1.03 µM [rising, full curve, poor fit]	–
COc1cccc(NC(=O)CN(C)C(=O)c2ccc3c(c2)C(=O)N(CCC(C)C)C3=O)c1	-1.81%	0.731 µM [rising, full curve, poor fit]	–
COc1cccc(CN2CCN(C(=O)c3ccc(-c4ccccc4)cc3)CC2)c1	36.8%	4.11 µM [rising, single point]	4.11 µM [rising, full curve]
COc1ccc(C(=O)N2CCOC2CNC(=O)C(=O)NCc2ccc3c(c2)OCO3)cc1 (stereo unspecified)	22.2%	14.6 µM [rising, partial curve]	0.58 µM [rising, full curve, poor fit]
O=S(=O)(Cc1ccccc1)N1CCN(Cc2ccc(F)cc2Cl)CC1	8.8%	–	–
Cc1[nH]n(-c2ccc(Cl)cc2)c(=O)c1C=NC12CN3CN(CN(C3)C1)C2	-61.4%	5.17 µM [falling, partial curve]	3.66 µM [falling, full curve]
COc1ccc(OCc2cc(C(=O)NCCc3ccccc3)no2)c(Cl)c1	26.9%	–	–
COC(=O)C1=CN(Cc2ccc(OC)cc2)C=C(C(=O)OC)C1c1ccc(O)c(OC)c1	-24.9%	–	–
O=C(N/N=C1\CCCc2ccccc21)c1ccccc1Cl	30.8%	16.4 µM [rising, partial curve, poor fit]	0.517 µM [rising, full curve, poor fit]
CCCOc1cccc(C(=O)Nc2nnn(CCC)n2)c1	-10.5%	0.146 µM [falling, full curve, poor fit]	–
O=C(Cc1ccccc1)Nc1ccc(C(=O)NCc2ccccc2)cc1	46.6%	–	29.1 µM [rising, single point]
Cc1ccc2nc3cc([N+](=O)[O-])cc([N+](=O)[O-])c3cc2c1	-12%	29.1 µM [falling, single point]	–
CCOc1ccc(C(=O)Nc2cccc3nsnc23)cc1[N+](=O)[O-]	-5.11%	–	–
CN(C)CCC(=O)NCC1OCCc2ccccc21 (stereo unspecified)	9.15%	6.51 µM [falling, partial curve, poor fit]	–
COc1ccc(N2C(=O)CC(N(CCc3ccccc3)C(=O)c3ccccc3)C2=O)cc1 (stereo unspecified)	-14.5%	–	–
COc1cccc(NC(=O)Cn2cnc3c(oc4nc5c(cc43)CCCC5)c2=O)c1	33.4%	–	29.1 µM [rising, single point]
O=C(Nc1cccnc1)C1CC(=O)N(c2ccc(F)cc2)C1 (stereo unspecified)	10.5%	–	0.13 µM [falling, partial curve, poor fit]
O=c1c(Cl)c(O)c2cccc3c4ccccc4n1c23	20.1%	0.13 µM [rising, full curve, poor fit]	–
Cc1ccc(NC2CCCN(C(=O)c3cccc4nccnc34)C2)cc1C (stereo unspecified)	26.2%	–	–
O=C1/C(=N\O)Cc2ccccc21	–	0.13 µM [rising, full curve]	0.092 µM [rising, full curve, poor fit]
Cc1ccc(CSCCNC(=O)c2ccccc2)cc1	39.8%	4.11 µM [rising, full curve]	3.66 µM [rising, full curve, poor fit]
O=C(COC(=O)C1CCN(c2ccc(C(F)(F)F)cn2)CC1)Nc1cc(F)ccc1F	-9.94%	11.6 µM [rising, partial curve, poor fit]	–
C/C=C\C(=O)Nc1cccc(C2=NOC3(C2)C[C@@H](C(N)=O)N(C(=O)COc2ccc(Cl)cc2)C3)c1 (stereo partly specified)	13.7%	0.58 µM [rising, full curve, poor fit]	–
OCc1nnn(-c2ccccc2)c1CO	-41.5%	29.1 µM [falling, single point]	29.1 µM [falling, single point]
COc1ccc(NC(=O)[C@@H](NC(N)=O)C(C)C)cc1Cl	-9.49%	9.2 µM [falling, partial curve, poor fit]	–
COCCCNC(=O)c1ccc(CS(=O)(=O)c2ccc(OC)cc2)o1	–	6.51 µM [rising, single point]	–
CC(C)(C)OC(=O)N[C@@H](Cc1c[nH]c2ccccc12)c1nnc(SCC(N)=O)o1	0.762%	5.17 µM [falling, partial curve, poor fit]	6.51 µM [falling, single point]

Exported bar-delimited: 2 of the compounds above
SMILES | cell number change | AC50 [1] | AC50 [2]
OCc1nnn(-c2ccccc2)c1CO | -41.5% | 29.1 µM [falling, single point] | 29.1 µM [falling, single point]
COc1ccc(NC(=O)[C@@H](NC(N)=O)C(C)C)cc1Cl | -9.49% | 9.2 µM [falling, partial curve, poor fit] | –
